Measured values as given in patent US7456205B2, “Benzopyran compounds, process for preparing the same and their use” (Shanghai Institute of Materia Medica, Chinese Academy of …, priority 2003, dated 2008).
For at least one compound, name, drawing or mass did not settle the structure.

System: 3T3-L1 cells
Test: Insulin-sensitizing activity in 3T3-L1 preadipocyte model, triglyceride accumulation as indication of cell differentiation
Format: cell-based
Settings: with IBMX, DEX and insulin, average of 3 pores (rosiglitazone n = 22, mean ± SD)
Experimental: The insulin-sensitizing agents can promote the differentiation of pre-adipocytes toward adipocyte. Thus insulin-sensitizing agents could be identified with the insex of the differentiation of pre-adipocytes. Following the methods reported in the literature [Kletzein B F. Mol. Pharm. 1991, 41, 393], the insulin-sensitizing activities of the compounds of formula (I) of the present invention were evaluated in 3T3-L1 preadipocyte model with triglyceride accumulation in cells as the indication of cell differentiation.
The 3T3-L1 cells were incubated in DMEM (Dulbecco's Modified Eagle's Medium) containing 10% NBS (newborn calf serum) and subcultured every 3 days. The cells were transferred to 24-pore plates, and after the pores were filled completely, the cells were treated with IBMX (isobutylmethylxanthine) (0.5 mmol/L), DEX (dexamethasone) (1 μmol/L) and insulin (1.0 μmol/L) for 48 h, meanwhile different amounts of test compounds were added into. The cells were incubated continuously until the end of the experiment. Cells were collected and the contents of triglyceride and protein therein were determined by colorimetry. Enhancements of triglyceride in cells after drug-administrating were calculated.
The positive control group was rosiglitazone, and the solvent control group was a culturing medium containing 0.1% of DMSO. […] Thus, the derivatives of the benzopyran compounds of the present invention can be used to control the blood glucose level in type II diabetes patients and inhibit the occurrence of complications caused by the type II diabetes.

`CN(CCOc1ccc(CC2SC(=O)NC2=O)cc1)c1ccccn1` (stereo not drawn) [Rosiglitazone, rosiglitazone, reference compound] was tested, and the “The Percentage of Triglyceride Increased in 3T3-L1 Cells” value (test compound 0.01 μmol/L) was 27.20 ± 2.35%, the “The Percentage of Triglyceride Increased in 3T3-L1 Cells” value (test compound 0.1 μmol/L) was 34.93 ± 2.14% and the “The Percentage of Triglyceride Increased in 3T3-L1 Cells” value (test compound 1 μmol/L) was 39.21 ± 2.27%.
